PubChem BioAssay AID1259425, University of Nebraska Medical Center, 2018
The deposit covers about 14,000 reagents; below is a part drawn at random. The numbers tell different reagents against one gene apart. Reagent sequences are not shown. Not given: the time to read-out.

- Aim: 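Seek colon cancer weak points whose silencing resembles KSR1 loss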 (primary screen)
- Cell system: HCT116 human colon cancer cells
- Reagent: siRNA pool against human genes, 50 nM siRNA
- Read-out: 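mRNA of six signature genes measured together by branched-DNA assay after 50 nM siRNA pool, blank removed, divided by geometric mean of two housekeeping genes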
- Scale: BNIP3L mRNA: higher = more BNIP3L transcript after knockdown; NDRG1 mRNA: higher = more NDRG1 transcript after knockdown; BNIP3 mRNA: higher = more BNIP3 transcript after knockdown; ALDOC mRNA: higher = more ALDOC transcript after knockdown; ACSL5 mRNA: higher = more ACSL5 transcript after knockdown

gene	reagent no.	BNIP3L mRNA, set 1	NDRG1 mRNA, set 1	BNIP3 mRNA, set 1	ALDOC mRNA, set 1	ACSL5 mRNA, set 1
HHIPL2	1	0.0905	0.232	0.266	0.0251	0.196
EPHA1	1	0.11	0.0411	0.389	0.0137	0.181
STS	1	0.0335	0.111	0.296	0.0099	0.085
CA2	1	0.115	0.203	0.317	0.0114	0.121
RPS27	1	0.152	0.249	0.274	0.0376	0.176
TKFC	1	0.0862	0.0808	0.354	0.0104	0.325
CREG1	1	0.0462	0.127	0.208	0.00819	0.163
SYNE1	1	0.0922	0.23	0.338	0.0651	0.245
RPL9	1	0.262	0.176	0.382	0.0167	0.271
RRP7A	1	0.0741	0.0756	0.378	0.0351	0.0871
PDE4D	1	0.126	0.177	0.316	0.0303	0.15
ENOX1	1	0.152	0.143	0.309	0.0148	0.111
PPARA	1	0.0542	0.0597	0.185	0.0175	0.151
PPARA	2	0.136	0.461	0.258	0.0384	0.329
TMEM242	1	0.0664	0.112	0.43	0.0133	0.199
VNN3P	1	0.0884	0.325	0.437	0.0237	0.267
ADCYAP1	1	0.0904	0.091	0.221	0.0198	0.0941
DHRS9	1	0.215	0.164	0.243	0.0475	0.153
PRDM4	1	0.17	0.16	0.437	0.0156	0.314

Sorted by “NDRG1 mRNA, set 1” (low to high): some entries from above
gene	reagent no.	BNIP3L mRNA, set 1	NDRG1 mRNA, set 1	BNIP3 mRNA, set 1	ALDOC mRNA, set 1	ACSL5 mRNA, set 1
ADCYAP1	1	0.0904	0.091	0.221	0.0198	0.0941
TMEM242	1	0.0664	0.112	0.43	0.0133	0.199
PRDM4	1	0.17	0.16	0.437	0.0156	0.314
DHRS9	1	0.215	0.164	0.243	0.0475	0.153
VNN3P	1	0.0884	0.325	0.437	0.0237	0.267

More reagents:
gene	reagent no.	BNIP3L mRNA, set 1	NDRG1 mRNA, set 1	BNIP3 mRNA, set 1	ALDOC mRNA, set 1	ACSL5 mRNA, set 1
SPINK2	1	0.0574	0.113	0.24	0.0179	0.193
XAGE1B	1	0.118	0.18	0.205	0.0509	0.0435
SLX1B	1	0.0933	0.159	0.325	0.0389	0.16
MAPRE3	1	0.0918	0.223	0.211	0.0392	0.0628
SNRNP27	1	0.0724	1.09	0.353	0.0301	0.446
FUCA2	1	0.102	0.315	0.312	0.0484	0.18
CYP2E1	1	0.0821	0.138	0.256	0.0115	0.112
HBG1	1	0.0803	0.105	0.245	0.0233	0.129
FRK	1	0.381	0.157	0.902	0.057	0.319
CIB1	1	0.0596	0.23	0.168	0.0147	0.157
CAMTA2	1	0.0738	0.102	0.293	0.0109	0.105
PCDHB13	1	0.29	0.218	0.331	0.0532	0.64
OTULINL	1	0.119	0.121	0.417	0.0275	0.231
C21orf58	1	0.0719	0.218	0.301	0.0226	0.174
RMND5B	1	0.131	0.118	0.2	0.0247	0.117
ATAD3A	1	0.0745	0.508	0.285	0.0226	0.256
TGM1	1	0.0815	0.186	0.317	0.0214	0.125
BCKDHA	1	0.114	0.121	0.222	0.0456	0.265
RASA4	1	0.138	0.181	0.154	0.0267	0.262
KCNC3	1	0.217	0.383	0.319	0.0434	0.177
CYBA	1	0.0503	0.894	0.404	0.0132	0.47
ANKRD17	1	0.221	0.243	0.617	0.0701	0.243
AARS2	1	0.268	0.526	0.268	-0.0132	0.226
LENG8	1	0.194	0.493	0.388	0.042	0.132
REN	1	0.191	0.395	0.344	0.0322	0.263
HYDIN	1	1.97	8.17	4.2	1.13	0.359
KRTAP3-3	1	0.16	0.227	0.263	0.064	0.146
STAM	1	0.0917	0.167	0.307	0.0189	0.67
CYP4B1	1	0.0857	0.0821	0.292	0.0159	0.151
CTAGE1	1	0.082	0.167	0.384	0.0403	0.206
TNS2	1	0.0899	0.183	0.316	0.0291	0.209
